Consider 1 substance from article PMC4686813.

Sequences of proteins named here, by UniProt entry; tags and fusion partners are left off. A change or cut given only in a name is not applied to a line headed by its entry.
UniProt P47758: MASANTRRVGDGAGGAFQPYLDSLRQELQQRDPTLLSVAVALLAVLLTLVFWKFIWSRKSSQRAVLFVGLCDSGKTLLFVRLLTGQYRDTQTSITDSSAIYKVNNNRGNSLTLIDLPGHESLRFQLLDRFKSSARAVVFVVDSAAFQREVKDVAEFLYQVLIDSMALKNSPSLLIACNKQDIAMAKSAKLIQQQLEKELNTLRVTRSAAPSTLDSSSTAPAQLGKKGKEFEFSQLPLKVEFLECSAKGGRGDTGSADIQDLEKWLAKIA

Results are given in words; binding and its absence hold for the method and conditions named. Binding seen in cells or lysates may run through a third protein. A result given as binding can be weak or reduced; the word gives no strength. Tags and fused reporters may be left off the sequences shown.

The assay addresses T1, human SRα (His-tagged) (human) (UniProt P08240).
T1 sequence: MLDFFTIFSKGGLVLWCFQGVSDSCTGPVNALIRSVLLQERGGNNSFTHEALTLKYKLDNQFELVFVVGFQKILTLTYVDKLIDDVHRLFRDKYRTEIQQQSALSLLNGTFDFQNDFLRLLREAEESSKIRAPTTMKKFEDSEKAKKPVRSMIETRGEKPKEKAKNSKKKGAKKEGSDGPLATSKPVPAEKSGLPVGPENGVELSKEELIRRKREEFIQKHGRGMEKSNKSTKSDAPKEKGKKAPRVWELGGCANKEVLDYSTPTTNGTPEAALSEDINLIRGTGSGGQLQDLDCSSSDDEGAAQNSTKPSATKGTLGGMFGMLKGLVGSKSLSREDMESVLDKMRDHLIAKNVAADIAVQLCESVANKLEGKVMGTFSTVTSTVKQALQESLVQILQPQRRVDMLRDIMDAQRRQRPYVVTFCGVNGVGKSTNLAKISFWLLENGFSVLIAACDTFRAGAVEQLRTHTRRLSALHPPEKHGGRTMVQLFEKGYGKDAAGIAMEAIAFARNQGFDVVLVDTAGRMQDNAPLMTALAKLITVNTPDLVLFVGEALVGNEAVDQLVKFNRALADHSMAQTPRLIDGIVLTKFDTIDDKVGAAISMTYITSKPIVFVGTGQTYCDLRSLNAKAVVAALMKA
Kind of assay: co-purification; human His-SRα and murine SRβΔTM co-expressed in E. coli from a bi-cistronic construct; Ni-NTA, Q-sepharose flow-through, SP-sepharose, Superdex 200 in SR buffer (25 mM HEPES pH 7.5, 300 mM KOAc, 5 mM Mg(OAc)2).

On to “murine SRβΔTM (from UniProt P47758) (domain or fragment)”, for which the binding result was “binds”.
